# In the supplement of paper PMC11732987, “Enantioselective OTUD7B fragment discovery through chemoproteomics screening and high-throughput optimisation” (Communications Chemistry, 2025):
# This is one part of the list. The data scatter; read single values as rough.
# Compound: ClCC(=O)N[C@H]1CCCc2ccccc12
# Assay: log2 mean competition ratio of IA-DTB cysteine labelling (DMSO/compound) (log2 ratio); higher = stronger cysteine engagement by compound
# Conditions: 50 µM; treatment time: 4 h; cell line lysate: HEK293T
# Method: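 IA-DTB competitive cysteine chemoproteomics in HEK293T RIPA lysate. Lysates were treated with compound 29 or 30 at 50 or 200 µM for 4 h, then IA-DTB (500 µM, 1 h), trypsin-digested, NeutrAvidin-enriched and analysed by diaPASEF. Competition ratio = intensity DMSO / intensity compound (n=4 treated, n=64 DMSO); binding: mean log2 CR ≥ 1 and p ≤ 0.05 plus QC filters. Target is the cysteine site.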
row,Target,log2 mean competition ratio
1,CTTN C246 (UniProt Q14247),-0.135
2,CSE1L C272 (UniProt P55060),0.174
3,CTBP2 C60 (UniProt P56545),-0.226
4,DARS1 C334,0.114
5,DDX23 C692 (UniProt Q9BUQ8),0.147
6,DCAF5 C829 (UniProt Q96JK2),-0.0338
7,CUL3 C522 (UniProt Q13618),0.053
8,DDX24 C639 (UniProt Q9GZR7),-0.104
9,CSNK1G2 C54 (UniProt P78368),-0.392
10,DECR2 C13 (UniProt Q9NUI1),0.415
11,DCP2 C140 (UniProt Q8IU60),-0.185
12,DARS2 C459 (UniProt Q6PI48),-0.207
13,CRYZ C45 (UniProt Q08257),0.334
14,DCAF10 C213 (UniProt Q5QP82),-0.283
15,CUL4A C241 (UniProt Q13619),-0.013
16,CUL1 C170 (UniProt Q13616),-0.284
17,DDX20 C181 (UniProt Q9UHI6),0.155
18,CSE1L C344 (UniProt P55060),-0.131
19,DECR2 C22 (UniProt Q9NUI1),-0.437
20,CTTNBP2 C307,-0.515

# Same assay, conditions: 200 µM; treatment time: 4 h; cell line lysate: HEK293T
row,Target,log2 mean competition ratio
1,CTTN C246 (UniProt Q14247),-0.135
2,CSE1L C272 (UniProt P55060),-0.364
3,CTBP2 C60 (UniProt P56545),0.0119
4,DARS1 C334,-0.0884
5,DDX23 C692 (UniProt Q9BUQ8),0.0606
6,DCAF5 C829 (UniProt Q96JK2),0.187
7,CUL3 C522 (UniProt Q13618),-0.277
8,DDX24 C639 (UniProt Q9GZR7),-0.0683
9,CSNK1G2 C54 (UniProt P78368),-0.115
10,DECR2 C13 (UniProt Q9NUI1),0.244
11,DCP2 C140 (UniProt Q8IU60),0.116
12,DARS2 C459 (UniProt Q6PI48),0.297
13,CRYZ C45 (UniProt Q08257),-0.0313
14,DCAF10 C213 (UniProt Q5QP82),-0.023
15,CUL4A C241 (UniProt Q13619),0.0392
16,CUL1 C170 (UniProt Q13616),-0.268
17,DDX20 C181 (UniProt Q9UHI6),-0.0705
18,CSE1L C344 (UniProt P55060),0.000759
19,DECR2 C22 (UniProt Q9NUI1),-0.205
20,CTTNBP2 C307,-0.201
